According to patent US20140242084A1 (published 2014):
Results are given in words; binding and its absence hold for the method and conditions named. Binding can be weak; no strength is given.

Target: recombinant integrin α5β1
Experiment: figure legend: SPR sensorgrams and PLA

- binding: binds
B1: recombinant human cANGPTL4 (C-terminal region of angiopoietin-like 4) (ligand, UniProt Q9BY76 186-406, looked up)
chain: RDCQELFQVGERQSGLFEIQPQGSPPFLVNCKMTSDGGWTVIQRRHDGSVDFNRPWEAYKAGFGDPHGEFWLGLEKVHSITGDRNSRLAVQLRDWDGNAELLQFSVHLGGEDTAYSLQLTAPVAGQLGATTVPPSGLSVPFSTWDQDHDLRRDKNCAKSLSGGWWFGTCSHSNLNGQYFRSIPQQRQKLKKGIFWKTWRGRYYPLQATTMLIQPMAAEAAS
notes: domain: c terminal region; the tag is not specified; also called rh-cANGPTL4; rhcANGPTL4
